LdMetRS: 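Methionyl-tRNA synthetase (putative), Leishmania donovani (UniProt E9BF75). Primary screen of methionyl-tRNA synthetase; the read-out is not stated. The test concentration is not given. The values are filed as inhibition. Of about 68,000 compounds tested this way, about 24 (0.035%) reached 50% or more in at least one test.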
Mtb heat-shock: 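Assay on Mycobacterium tuberculosis, filed only as a heat shock assay from Cornell; the read-out is not stated. The concentration is filed as 10 mM, unlikely as a test dose, so the dose is not known. The record gives no direction; compounds that gave an IC50 in retests scored well above the rest, so higher reads as stronger inhibition. Of about 69,000 compounds tested this way, about 930 (1.4%) reached 50% or more in at least one test.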

Amino acid sequences for entries named in this document (tags omitted).
UniProt E9BF75, entry or part of it: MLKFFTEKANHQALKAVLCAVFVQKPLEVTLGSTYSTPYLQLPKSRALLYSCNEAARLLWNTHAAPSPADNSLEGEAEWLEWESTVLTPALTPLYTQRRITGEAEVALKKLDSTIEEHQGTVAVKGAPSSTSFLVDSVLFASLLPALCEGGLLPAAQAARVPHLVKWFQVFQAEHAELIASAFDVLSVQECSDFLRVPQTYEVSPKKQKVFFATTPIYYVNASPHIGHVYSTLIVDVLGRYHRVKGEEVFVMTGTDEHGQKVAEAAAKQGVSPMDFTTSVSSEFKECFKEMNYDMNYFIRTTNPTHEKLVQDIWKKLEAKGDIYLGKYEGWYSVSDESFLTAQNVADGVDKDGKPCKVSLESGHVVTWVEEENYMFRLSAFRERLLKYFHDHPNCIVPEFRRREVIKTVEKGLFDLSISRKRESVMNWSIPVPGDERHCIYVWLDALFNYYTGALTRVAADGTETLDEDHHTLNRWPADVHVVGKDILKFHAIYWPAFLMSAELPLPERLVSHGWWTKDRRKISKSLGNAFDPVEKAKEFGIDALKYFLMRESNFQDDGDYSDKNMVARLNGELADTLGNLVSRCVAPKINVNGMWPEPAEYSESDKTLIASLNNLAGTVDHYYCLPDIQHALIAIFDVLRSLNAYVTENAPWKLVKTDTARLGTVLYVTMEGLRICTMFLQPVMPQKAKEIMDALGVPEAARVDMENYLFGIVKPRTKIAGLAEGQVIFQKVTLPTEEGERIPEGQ

All values are in %.
The controls that fix the scale are not given in the record; negative values are as filed.
Compounds were drawn at random from those tested, without regard to their results.
A dash means the value is not listed here; it may have been measured.

SMILES | LdMetRS | Mtb heat-shock
NC(=O)CN1CCCN(C(=O)c2ccn(-c3ccc(F)cc3)n2)CC1 | 6.367% | -23.98%
Cn1cc(C#N)cc1C(=O)NC1(C#N)CCSCC1 | 11.7% | 11.44%
CSCCCN1C[C@H](NC(=O)c2cc(C3CC3)on2)[C@@H](C2CC2)C1 | 16.72% | 11.59%
CCN(CC)C(=O)C1CCCN1C(=O)c1cccc(-n2cnnn2)c1 (stereo unspecified) | 20.56% | -21.84%
c1cnc(N2C[C@@H]3CC[C@H](C2)N(Cc2ccsc2)C3)nc1 | 9.214% | -
Cc1cccc(NC(=O)[C@@H]2CCCN2Cc2nnc(C(C)C)n2C)n1 | 2.653% | -32.94%
O=S(=O)(C1CC1)N1CCc2onc(COc3ccccn3)c2C1 | 7.609% | -
O=C(c1nc2c(o1)CN(CC1CC1)C2)N1CCCC1 | 11.59% | -
O=C(c1ncc[nH]1)N1CCC(n2cc(-c3ccccn3)nn2)CC1 | 13.19% | -16.34%
COCC(=O)N1CCC(C(=O)Nc2ccc(S(N)(=O)=O)cc2)CC1 | 0.9804% | 6.808%
Cn1cc(CN2CCC3(CCC(C(=O)NCC4CC4)C3)CC2)cn1.O=C(O)C(F)(F)F (stereo unspecified) | - | -6.178%
[H][C@@]12CCN(c3ncccn3)C[C@]1([H])[C@@H](CN(C)Cc1cccnc1)OC2 | - | 5.229%
Cc1oc(-c2cc(F)cc(F)c2)nc1CN1C[C@@H](C)NC[C@@H]1C | 14.03% | -6.876%
Cc1nc(C)n(CC2CN(CCc3ccccn3)CCO2)n1 (stereo unspecified) | 17.73% | -1.804%
Cc1cnn(CCC(=O)N2CCCC(c3cc(C)[nH]n3)C2)c1 (stereo unspecified) | 5.215% | -24.85%
CC(C)NC(=O)C(c1ccccc1)N1CCn2c(nnc2C2CC2)C1 (stereo unspecified) | 13.5% | 3.795%
O=C(NC[C@]12COC[C@H]1CN(C1CCOCC1)C2)c1ccco1 | 2.439% | -
O=C(C1CC1)N1CCC(Oc2ccccc2Cl)CC1 | 6.211% | -5.878%
CN(Cc1ccoc1)C(=O)C1CCN(C(=O)C2CCCC2)CC1 | 8.815% | -15.56%
Cc1nc(C(=O)N2CCOC(c3nc(C(C)C)n[nH]3)C2)c[nH]1 (stereo unspecified) | 17.14% | -6.417%
CC(C)CN1CCCC2(CCN(c3ccc(C#N)cn3)C2)C1.O=C(O)C(F)(F)F (stereo unspecified) | - | 9.634%
O=C(c1ccncc1F)N1CCCC(c2nccn2CC2CCC2)C1 (stereo unspecified) | 13.91% | -9.182%
Cc1c(NCC(C)(C)C)cccc1C(=O)NCc1ncnn1C | 13.98% | 0.8247%
Cc1nn(C)c(C)c1C1COCCN1C(=O)CSC(C)(C)C (stereo unspecified) | 7.599% | -18.96%
CN1CCOC(C(=O)N(C)c2ccc3c(c2)CCO3)C1 (stereo unspecified) | 9.537% | 5.875%
COc1ccccc1OCc1cc(C(=O)N2C[C@H](O)[C@@H](N(C)C)C2)n[nH]1 | 20.35% | 1.625%
CC(C)COC(C)C(=O)NCc1ccc(Cn2ccnc2)cc1 (stereo unspecified) | 12.57% | 0.9131%
CC(C)c1nccn1C1CCCN(C(=O)c2cccc3c2OCO3)C1 (stereo unspecified) | 9.804% | 3.414%
CCc1ccc(C2CCCCCN2Cc2nc(CCOC)no2)o1 (stereo unspecified) | 12.6% | -13.01%
CN(C)CC1CCCCN1C(=O)c1ccc(N2CCOCC2)cc1 (stereo unspecified) | 18.38% | -3.052%
CS(=O)(=O)CCN1C[C@H](NC(=O)c2cnc(O)cn2)[C@@H](C2CC2)C1 | 0% | -5.729%
CCN1CCC2(CCC1=O)CN(C1CCOCC1)CCN2C (stereo unspecified) | 12.28% | 14.32%
CCS(=O)(=O)NC1CCCN(Cc2ccn(C)c(=O)c2)C1 (stereo unspecified) | 5.85% | -16.39%
CC(C)S(=O)(=O)NCC1CCCN(C(=O)c2cccnc2)C1 (stereo unspecified) | 12.32% | -13.09%
Cc1cc(C)cc(OCCC(=O)N2CCOCC2c2ncon2)c1 (stereo unspecified) | 9.206% | 12.58%
OC(COCc1ccccc1Cl)CN1CCC(c2ccn[nH]2)CC1 (stereo unspecified) | 7.042% | -1.479%
CNc1cc(C2CCCN2C(=O)CCc2ccccc2F)ccn1 (stereo unspecified) | 14.7% | -3.157%
CNC(=O)Nc1cc(-c2ccccc2C)nn1CCO | 4.225% | -7.25%
CCOc1ccc(CC(=O)N(CCC(=O)OC)CC2CCCO2)cc1 (stereo unspecified) | 5.108% | 12.84%
Cc1nccc(-c2ccccc2)c1C(=O)N1CCC2(CC(=O)NC2=O)C1 (stereo unspecified) | 15.32% | 8.291%
CC(C)n1[nH]c(=O)c2c1NC(=O)CC2c1cccc(O)c1 (stereo unspecified) | 16.82% | -11.99%
CN(C)Cc1cnc2n1CCN(Cc1ccsc1)CC2 | 20.5% | -
Cc1noc(C)c1CNC1CCN(c2ccccc2OC(F)F)C1 (stereo unspecified) | 11.91% | 11.55%
CC(Nc1ccc(CCN2CCCCC2)cc1)C(=O)N(C)CCC#N (stereo unspecified) | 9.669% | 1.186%
CC(=O)Nc1cccc(C(=O)N(C)C(C)Cc2cc(C)ccn2)c1 (stereo unspecified) | 14.78% | 2.866%
CNc1cccc(CC2COCCN(C(=O)c3cncs3)C2)n1 (stereo unspecified) | 7.477% | 5.177%
CSc1ccc(CNC2(c3ccc(F)cc3)CCOCC2)cc1 | - | -14.57%
[H][C@@]12CN(Cc3nccn3C)C(=O)N1CCN(S(=O)(=O)c1ccccc1)C2 | - | -21.31%
CCN(CCO)C[C@@H]1CN(C(=O)c2ccc(C)s2)C[C@@H]1CO | 5% | -22.87%
CCOCCN1CCN(Cc2nc(C)no2)CC1CC (stereo unspecified) | 7.609% | -16.6%
COCCOCC(=O)Nc1ccc(C)cc1F | 4.225% | -11.61%
CN(C)S(=O)(=O)N1C[C@H]2CCC[C@@]2(COCC2CC2)C1 | 12.04% | -
CCN(CC(=O)N(C)C)C(=O)c1cc(-c2cccc(Cl)c2)no1 | 6.596% | -17.76%
Cc1nccn1CCCC(=O)N1CCCN(c2cccnn2)CC1 | 13.68% | -10.79%
O=S(=O)(Nc1cnc(N2CCCC2)nc1)c1ccc(C(F)(F)F)cc1 | 4.348% | -8.902%
Cc1cnc(N2CC[C@@]3(O)CCCC[C@H]3C2)nc1-c1ccnn1C | 12.21% | -
O=C(NCc1cnc2n1CCN(Cc1ccsc1)CC2)C1CCC1.O=C(O)C(F)(F)F | - | -4.042%
O=C(NCC1CC1)c1cc(Br)cnc1N1CCCCC1 | 15.28% | 16.07%
CS(=O)(=O)c1ccc(CNC2CCCN(c3cccnn3)C2)cc1 (stereo unspecified) | 9.722% | -0.449%
N#Cc1cccc(OC23CCCN(CC2)C3)c1 (stereo unspecified) | 7.614% | -19.96%
NC(=O)c1cc(CC2CCCN(c3cnccn3)C2)ncn1 (stereo unspecified) | 14.89% | -2.656%
CN1Cc2cc(F)ccc2N(CC(O)C(F)(F)F)CCC1=O (stereo unspecified) | 5.205% | 54.29%
O=C1CC(c2ccc(O)cc2)c2sc(C(=O)O)c(-c3ccccc3)c2N1 (stereo unspecified) | 19.27% | 13.79%
Cc1nnc(C(C)N(C)Cc2c(C)nn(-c3ccccc3)c2C)o1 (stereo unspecified) | 10.48% | 6.263%
CCCc1n[nH]c(C2CN(CCCS(C)(=O)=O)CCO2)n1 (stereo unspecified) | 19.44% | -4.862%
O=C(O)C(F)(F)F.O=C1NC2(CCN(CCO)CC2)CC1c1ccccc1 (stereo unspecified) | - | 1.933%
CCCN1CCC(NC(=O)Nc2ccc(OC)c(OC)c2)CC1 | 8.824% | 3.979%
O=C(c1cccnc1)N1CCC(c2nc(O)cc(-c3ccncc3)n2)C1 (stereo unspecified) | 9.375% | 1.669%
[H][C@]12CN(Cc3nc(C)c[nH]3)CC[C@@]1(O)CCN(C(C)=O)C2 | - | -23.01%

For reference, 6 entries once more:

Cc1cccc(NC(=O)[C@@H]2CCCN2Cc2nnc(C(C)C)n2C)n1 read LdMetRS: 2.653%; Mtb heat-shock: -32.94%.
CS(=O)(=O)c1ccc(CNC2CCCN(c3cccnn3)C2)cc1 (stereo unspecified) read LdMetRS: 9.722%; Mtb heat-shock: -0.449%.
CSc1ccc(CNC2(c3ccc(F)cc3)CCOCC2)cc1 read Mtb heat-shock: -14.57%.
Cc1nnc(C(C)N(C)Cc2c(C)nn(-c3ccccc3)c2C)o1 (stereo unspecified) read LdMetRS: 10.48%; Mtb heat-shock: 6.263%.
N#Cc1cccc(OC23CCCN(CC2)C3)c1 (stereo unspecified) read LdMetRS: 7.614%; Mtb heat-shock: -19.96%.
CN(C)Cc1cnc2n1CCN(Cc1ccsc1)CC2 read LdMetRS: 20.5%.

The values are deposited in ChEMBL (CHEMBL3988442, “University of Dundee, Small-Polar-MMV Screening Library” (2021)).